Test results reported in the supplement of paper PMC10331698.
± gives the standard deviation of the averaged measurements. Most entries show no effect beyond the scatter of the controls.

Columns and labels:
Test in all cases: level (log10 ratio to DMSO vehicle control); higher = higher biomarker level / cell amount than vehicle control
[1] = compound: C=C(C)C(=O)OCC(F)(F)C(F)(F)C(F)(F)C(F)(F)C(F)(F)C(F)(F)C(F)(F)F; conditions: in DMSO
In short: (§1)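 Log10-transformed ratios of each well to the mean of 8 same-plate DMSO wells were averaged over duplicate blinded samples. The wells contained BioMAP Diversity Plus human primary cell co-cultures given test substances 1 h before cytokine or activator stimulation, then incubated 24 h, or 48 h for MyoF and 72 h for BT (6 d for secreted IgG). Biomarkers were read by ELISA, cell amount by sulforhodamine B, and PBMC viability/proliferation by Alamar Blue.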

[2] = compound: C=CC(=O)OCC(F)(F)C(F)(F)C(F)(F)C(F)(F)C(F)(F)C(F)(F)C(F)(F)F [1H,1H-Perfluorooctyl acrylate]; conditions: 2200 nM; in DMSO
In short: as §1

[3] = compound: C=CC(F)(F)C(F)(F)C(F)(F)C(F)(F)C(F)(F)C(F)(F)C(F)(F)C(F)(F)C=C [1,8-Divinylperfluorooctane]; conditions: in DMSO
In short: as §1

[4] = compound: COC(=O)C(F)(F)C(F)(F)OC(F)(C(F)(F)F)C(F)(F)OC(F)=C(F)F [Methyl perfluoro(3-(1-ethenyloxypropan-2-yloxy)propanoate)]; conditions: in DMSO
In short: as §1

[5] = compound: CO[Si](C)(CCC(F)(F)C(F)(F)C(F)(F)C(F)(F)C(F)(F)C(F)(F)F)OC [Dimethoxymethyl((perfluorohexyl)ethyl)silane]; conditions: in DMSO
In short: as §1

[6] = compound: FC(F)(F)C(F)(F)C(F)(F)CC1CO1 [1H,1H-Heptafluorobutyl epoxide]; conditions: 2200 nM; in DMSO
In short: as §1

Heptafluorobutyl iodide = compound: FC(F)(F)C(F)(F)C(F)(F)CI [Heptafluorobutyl iodide]; conditions: 2200 nM; in DMSO
In short: as §1

[7] = compound: NC(=O)C(F)(F)C(F)(F)C(F)(F)C(F)F; conditions: in DMSO
In short: as §1

Pentafluoropropionamide = compound: NC(=O)C(F)(F)C(F)(F)F [Pentafluoropropionamide]; conditions: 2200 nM; in DMSO
In short: as §1

[8] = compound: NS(=O)(=O)C(F)(F)C(F)(F)C(F)(F)C(F)(F)C(F)(F)C(F)(F)C(F)(F)C(F)(F)F [Perfluorooctanesulfonamide]; conditions: in DMSO
In short: as §1

[9] = compound: O=C(O)C(F)(F)C(F)(F)C(F)F [4H-Perfluorobutanoic acid]; conditions: in DMSO
In short: as §1

[10] = compound: O=P(O)(O)CCC(F)(F)C(F)(F)C(F)(F)C(F)(F)C(F)(F)C(F)(F)F [2-(Perfluorohexyl)ethylphosphonic acid]; conditions: 2200 nM; in DMSO
In short: as §1

[11] = compound: O=S(=O)(F)C(F)(F)C(F)(F)C(F)(F)C(F)(F)C(F)(F)C(F)(F)C(F)(F)C(F)(F)F [Perfluorooctanesulfonyl fluoride]; conditions: 2200 nM; in DMSO
In short: as §1

[12] = compound: O=S(=O)(O)C(F)(F)C(F)(F)C(F)(F)C(F)(F)C(F)(F)C(F)(F)C(F)(F)C(F)(F)F [Perfluorooctanesulfonic acid]; conditions: 2200 nM; in DMSO
In short: as §1

[13] = compound: O=S(=O)(O)C(F)(F)C(F)(F)C(F)(F)C(F)(F)C(F)(F)C(F)(F)C(F)(F)C(F)(F)F [Potassium perfluorooctanesulfonate]; conditions: 2200 nM; in DMSO
In short: as §1

[14] = compound: O=S(=O)(OCC(F)(F)F)C(F)(F)C(F)(F)C(F)(F)C(F)(F)F [2,2,2-Trifluoroethyl perfluorobutanesulfonate]; conditions: 2200 nM; in DMSO
In short: as §1

[15] = compound: OCC(F)(F)C(F)(F)C(F)(F)C(F)(F)C(F)(F)C(F)F [1H,1H,7H-Dodecafluoro-1-heptanol]; conditions: 2200 nM; in DMSO
In short: as §1

[16] = compound: OCCCCC(F)(F)C(F)(F)C(F)(F)C(F)(F)F [4:4 Fluorotelomer alcohol]; conditions: 2200 nM; in DMSO
In short: as §1

Test System	level (log10) ([1]; 740 nM)	level (log10) ([1]; 2200 nM)	level (log10) [2]	level (log10) ([3]; 740 nM)	level (log10) ([3]; 2200 nM)	level (log10) ([4]; 740 nM)	level (log10) ([4]; 2200 nM)	level (log10) ([5]; 740 nM)	level (log10) ([5]; 2200 nM)	level (log10) [6]	level (log10) (Heptafluorobutyl iodide)	level (log10) ([7]; 2200 nM)	level (log10) ([7]; 6700 nM)	level (log10) ([7]; 20000 nM)	level (log10) ([7]; 60000 nM)	level (log10) (Pentafluoropropionamide)	level (log10) ([8]; 2200 nM)	level (log10) ([8]; 6700 nM)	level (log10) ([8]; 20000 nM)	level (log10) ([9]; 2200 nM)	level (log10) ([9]; 6700 nM)	level (log10) ([9]; 20000 nM)	level (log10) ([9]; 60000 nM)	level (log10) [10]	level (log10) [11]	level (log10) [12]	level (log10) [13]	level (log10) [14]	level (log10) [15]	level (log10) [16]
KF3CT:SRB	0.009 ± 0.03	-0.0065 ± 0.021	0.0005 ± 0.013	-0.0085 ± 0.019	-0.0185 ± 0.025	0.015 ± 0.0042	-0.0035 ± 0.005	0.0015 ± 0.015	-0.0055 ± 0.00071	0.0025 ± 0.015	0.0025 ± 0.0064	0.0115 ± 0.016	-0.006 ± 0.0028	-0.0005 ± 0.0064	-0.002 ± 0.013	0.0045 ± 0.013	0.0055 ± 0.00071	-0.0035 ± 0.015	-0.0455 ± 0.029	0.0025 ± 0.0035	-0.005 ± 0.0071	-0.0065 ± 0.0064	-0.008 ± 0.0014	0.0065 ± 0.013	0.0025 ± 0.0064	-0.004	0.0005 ± 0.015	0.0035 ± 0.015	0.0185 ± 0.028	-0.0085 ± 0.00071
LPS:SRB	0.019 ± 0.0028	0.0095 ± 0.0092	-0.004 ± 0.014	0.012 ± 0.0042	0.0115 ± 0.0078	-0.005 ± 0.014	-0.003 ± 0.0071	0.0055 ± 0.012	0.01 ± 0.024	0.002 ± 0.0099	0.003 ± 0.0014	-0.0015 ± 0.0035	-0.011 ± 0.0071	-0.006 ± 0.0042	-0.0105 ± 0.00071	0.0105 ± 0.0021	0.015 ± 0.013	0.009 ± 0.0057	-0.0625 ± 0.0078	-0.0045 ± 0.0078	-0.0045 ± 0.0035	-0.0105 ± 0.0092	0.003	-0.002 ± 0.0071	-0.001 ± 0.011	0.003 ± 0.014	-0.0055 ± 0.0021	0.006 ± 0.0014	-0.004 ± 0.017	0.013 ± 0.02
BT:sIL-17F	0.037 ± 0.016	0.019 ± 0.059	-0.055 ± 0.0085	0.036 ± 0.034	0.0275 ± 0.046	-0.0165 ± 0.086	0.088 ± 0.17	0.0355 ± 0.13	-0.079 ± 0.088	-0.008 ± 0.017	-0.0605 ± 0.11	-0.0335 ± 0.069	0.0335 ± 0.019	-0.0275 ± 0.015	-0.018 ± 0.023	-0.0285 ± 0.015	-0.01 ± 0.024	-0.0365 ± 0.084	-0.0785 ± 0.11	-0.0485 ± 0.31	-0.0445 ± 0.005	-0.067 ± 0.17	-0.0165 ± 0.036	-0.008 ± 0.069	0.0015 ± 0.077	-0.0175 ± 0.032	-0.034 ± 0.034	-0.0135 ± 0.049	-0.0905 ± 0.021	-0.069 ± 0.0085
SAg:CD62E/E-Selectin	0.012 ± 0.014	0.0065 ± 0.0035	0.0125 ± 0.021	-0.008 ± 0.023	-0.016 ± 0.024	0 ± 0.03	0.0065 ± 0.033	-0.0185 ± 0.015	-0.018 ± 0.017	0.001 ± 0.017	-0.0155 ± 0.022	0.011 ± 0.051	0.005 ± 0.04	-0.0135 ± 0.039	0.0155 ± 0.036	-0.002 ± 0.0014	0.019 ± 0.028	-0.0165 ± 0.00071	-0.0845 ± 0.015	-0.007 ± 0.021	-0.0205 ± 0.018	-0.002 ± 0.0014	0.0175 ± 0.0078	0.0065 ± 0.033	-0.0055 ± 0.043	0.007 ± 0.034	-0.0005 ± 0.00071	-0.0065 ± 0.005	-0.006 ± 0.02	0.0125 ± 0.021
